Experimental data from patent US20210008175A1, “BACTERIOPHAGE LYSIN AND ANTIBIOTIC COMBINATIONS AGAINST GRAM POSITIVE BACTERIA” (priority 2012, published 2021).
Some of these results come from one statement about several compounds together.

Tested on: Staphylococcus aureus (MRSA and MSSA strains)
Experiment: Time kill assay, single agents at 1×MIC (CLSI)
Format: cell-based
Settings: most MRSA and MSSA strains; over a few hours or more of incubation

SMILES: CN[C@H](CC(C)C)C(=O)N[C@H]1C(=O)N[C@@H](CC(N)=O)C(=O)N[C@H]2C(=O)N[C@H]3C(=O)N[C@H](C(=O)N[C@H](C(=O)O)c4cc(O)cc(O)c4-c4cc3ccc4O)[C@H](O)c3ccc(c(Cl)c3)Oc3cc2cc(c3O[C@@H]2O[C@H](CO)[C@@H](O)[C@H](O)[C@H]2O[C@H]2C[C@](C)(N)[C@H](O)[C@H](C)O2)Oc2ccc(cc2Cl)[C@H]1O [Vancomycin, vancomycin]
- reduction of growth: 2-3 logs
